These are yes or no findings as the source states them, for the method shown. Binding seen in cells or lysates may run through a third protein. Here binding means that the protein was enriched with, or labelled near, the bait; the list need not be complete.
Target: T1, NEAT1-31 (micropeptide encoded by LincNEAT1) (human (endogenous in THP1))
T1 sequence: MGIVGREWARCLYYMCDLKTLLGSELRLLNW
Experiment: affinity purification with mass spectrometry; co-IP with the NEAT1-31 antibody from macrophage (THP1) lysate; 0.3% CHAPS lysis buffer, Protein A/G beads, 4 °C, 8-12 h, washed with PBST; LC-MS

Chains of the proteins cited; added tags and fusions are not shown.
UniProt O14965: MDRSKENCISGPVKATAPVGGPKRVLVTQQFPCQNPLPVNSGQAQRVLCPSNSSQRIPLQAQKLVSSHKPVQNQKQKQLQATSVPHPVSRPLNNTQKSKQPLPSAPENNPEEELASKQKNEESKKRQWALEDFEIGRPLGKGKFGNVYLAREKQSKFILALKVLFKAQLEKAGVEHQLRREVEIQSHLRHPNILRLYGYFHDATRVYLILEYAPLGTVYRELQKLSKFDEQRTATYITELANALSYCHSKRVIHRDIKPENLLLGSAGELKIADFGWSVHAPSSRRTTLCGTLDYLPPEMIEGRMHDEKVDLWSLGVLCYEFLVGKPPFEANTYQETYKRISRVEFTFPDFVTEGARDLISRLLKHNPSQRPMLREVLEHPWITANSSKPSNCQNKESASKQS

binding: binds
Substance: Aurora-A (from UniProt O14965 1-403) (enzyme)

Reference: paper PMC12376509
